Test results taken from the supplement of paper PMC12819154, “High-throughput peptide-centric local stability assay extends protein–ligand identification to membrane proteins, tissues and bacteria” (Nature Structural & Molecular Biology, 2025).
The other results are listed elsewhere or left out. Most values lie at the level of the controls, where differences are scatter.

Sequences of proteins named here, by UniProt entry; tags and fusion partners are left off. A change or cut given only in a name is not applied to a line headed by its entry.
UniProt Q5QJ74: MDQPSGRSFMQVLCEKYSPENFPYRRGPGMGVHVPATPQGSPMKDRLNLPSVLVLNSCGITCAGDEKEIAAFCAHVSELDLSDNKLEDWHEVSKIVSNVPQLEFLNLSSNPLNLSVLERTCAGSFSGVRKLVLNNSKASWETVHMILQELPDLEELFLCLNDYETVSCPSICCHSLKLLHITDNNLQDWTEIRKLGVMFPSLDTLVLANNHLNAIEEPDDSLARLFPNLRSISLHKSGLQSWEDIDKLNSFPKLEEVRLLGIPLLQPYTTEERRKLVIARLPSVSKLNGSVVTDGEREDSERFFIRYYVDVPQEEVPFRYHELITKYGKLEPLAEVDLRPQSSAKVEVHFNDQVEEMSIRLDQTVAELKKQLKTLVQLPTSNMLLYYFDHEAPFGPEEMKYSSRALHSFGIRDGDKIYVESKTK
UniProt Q56UQ5: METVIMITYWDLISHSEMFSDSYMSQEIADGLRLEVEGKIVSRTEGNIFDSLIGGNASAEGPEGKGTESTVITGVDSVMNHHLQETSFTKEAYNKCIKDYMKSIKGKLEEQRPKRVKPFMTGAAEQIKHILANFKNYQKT
UniProt Q53HC0: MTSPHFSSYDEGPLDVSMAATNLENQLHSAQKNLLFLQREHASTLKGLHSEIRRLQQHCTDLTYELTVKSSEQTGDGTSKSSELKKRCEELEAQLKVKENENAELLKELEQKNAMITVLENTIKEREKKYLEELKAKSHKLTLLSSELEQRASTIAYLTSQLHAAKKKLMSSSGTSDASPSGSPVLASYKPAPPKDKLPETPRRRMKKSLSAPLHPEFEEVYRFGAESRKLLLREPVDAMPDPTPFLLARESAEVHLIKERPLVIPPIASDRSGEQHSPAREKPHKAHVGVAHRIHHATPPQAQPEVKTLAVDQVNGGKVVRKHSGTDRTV
UniProt Q5HYI8: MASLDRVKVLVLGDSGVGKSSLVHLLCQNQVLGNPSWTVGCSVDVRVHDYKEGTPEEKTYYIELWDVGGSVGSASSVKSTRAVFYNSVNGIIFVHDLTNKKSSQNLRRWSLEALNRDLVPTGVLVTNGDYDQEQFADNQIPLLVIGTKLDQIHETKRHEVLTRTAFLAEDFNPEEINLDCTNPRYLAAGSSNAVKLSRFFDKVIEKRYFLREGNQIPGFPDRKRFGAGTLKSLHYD
UniProt Q5T0N5: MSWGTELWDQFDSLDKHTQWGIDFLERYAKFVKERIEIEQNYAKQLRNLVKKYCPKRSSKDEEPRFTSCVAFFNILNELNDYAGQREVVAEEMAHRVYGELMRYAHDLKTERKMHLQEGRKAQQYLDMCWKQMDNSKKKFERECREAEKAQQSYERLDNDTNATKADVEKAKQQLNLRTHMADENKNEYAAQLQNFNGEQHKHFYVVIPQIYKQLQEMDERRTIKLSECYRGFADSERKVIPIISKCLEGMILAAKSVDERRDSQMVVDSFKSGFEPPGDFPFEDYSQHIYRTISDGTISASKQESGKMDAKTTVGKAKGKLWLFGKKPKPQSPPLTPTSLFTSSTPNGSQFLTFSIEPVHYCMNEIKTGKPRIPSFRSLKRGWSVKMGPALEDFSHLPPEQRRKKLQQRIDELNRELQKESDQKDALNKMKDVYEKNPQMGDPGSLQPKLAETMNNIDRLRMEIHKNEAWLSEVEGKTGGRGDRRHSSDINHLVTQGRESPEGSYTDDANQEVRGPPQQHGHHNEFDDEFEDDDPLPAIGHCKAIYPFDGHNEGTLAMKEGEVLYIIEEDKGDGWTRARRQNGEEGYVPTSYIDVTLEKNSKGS
UniProt Q5SVZ6: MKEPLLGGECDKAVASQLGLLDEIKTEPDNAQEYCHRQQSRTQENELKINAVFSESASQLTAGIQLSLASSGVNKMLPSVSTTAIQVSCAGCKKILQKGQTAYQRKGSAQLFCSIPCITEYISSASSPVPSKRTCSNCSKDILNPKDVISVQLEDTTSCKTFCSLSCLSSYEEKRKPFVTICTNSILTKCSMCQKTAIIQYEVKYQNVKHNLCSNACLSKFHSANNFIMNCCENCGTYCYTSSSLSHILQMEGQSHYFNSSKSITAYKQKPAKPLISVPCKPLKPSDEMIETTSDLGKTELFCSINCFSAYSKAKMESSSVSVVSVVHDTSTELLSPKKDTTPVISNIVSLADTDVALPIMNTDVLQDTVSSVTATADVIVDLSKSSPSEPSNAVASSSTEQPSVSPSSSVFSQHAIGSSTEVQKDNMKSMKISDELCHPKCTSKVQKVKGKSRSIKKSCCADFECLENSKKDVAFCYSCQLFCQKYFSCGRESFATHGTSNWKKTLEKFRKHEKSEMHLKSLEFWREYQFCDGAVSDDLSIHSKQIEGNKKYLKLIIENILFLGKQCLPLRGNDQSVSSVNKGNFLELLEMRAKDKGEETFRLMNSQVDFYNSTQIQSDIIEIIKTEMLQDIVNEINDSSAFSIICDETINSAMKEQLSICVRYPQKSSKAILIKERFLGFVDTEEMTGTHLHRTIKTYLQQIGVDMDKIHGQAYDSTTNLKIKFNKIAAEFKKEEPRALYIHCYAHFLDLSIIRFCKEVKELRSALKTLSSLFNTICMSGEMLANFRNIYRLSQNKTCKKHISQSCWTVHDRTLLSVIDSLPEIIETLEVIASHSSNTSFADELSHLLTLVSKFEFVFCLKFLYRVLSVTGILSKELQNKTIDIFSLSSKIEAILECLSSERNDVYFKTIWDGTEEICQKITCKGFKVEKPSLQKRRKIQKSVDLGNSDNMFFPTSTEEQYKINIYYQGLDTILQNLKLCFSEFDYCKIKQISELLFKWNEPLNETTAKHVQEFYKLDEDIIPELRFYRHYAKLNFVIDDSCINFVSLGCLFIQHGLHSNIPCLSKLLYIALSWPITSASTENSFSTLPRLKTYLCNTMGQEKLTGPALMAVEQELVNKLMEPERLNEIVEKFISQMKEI
UniProt Q53HV7: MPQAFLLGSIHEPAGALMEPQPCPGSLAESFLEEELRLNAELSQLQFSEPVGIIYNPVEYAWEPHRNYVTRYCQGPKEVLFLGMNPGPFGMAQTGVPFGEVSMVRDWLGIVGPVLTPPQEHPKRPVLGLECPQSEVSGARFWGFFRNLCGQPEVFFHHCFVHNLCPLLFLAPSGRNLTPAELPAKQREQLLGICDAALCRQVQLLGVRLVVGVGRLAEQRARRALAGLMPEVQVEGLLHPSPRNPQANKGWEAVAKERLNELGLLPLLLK
UniProt Q4G0F5, whole entry: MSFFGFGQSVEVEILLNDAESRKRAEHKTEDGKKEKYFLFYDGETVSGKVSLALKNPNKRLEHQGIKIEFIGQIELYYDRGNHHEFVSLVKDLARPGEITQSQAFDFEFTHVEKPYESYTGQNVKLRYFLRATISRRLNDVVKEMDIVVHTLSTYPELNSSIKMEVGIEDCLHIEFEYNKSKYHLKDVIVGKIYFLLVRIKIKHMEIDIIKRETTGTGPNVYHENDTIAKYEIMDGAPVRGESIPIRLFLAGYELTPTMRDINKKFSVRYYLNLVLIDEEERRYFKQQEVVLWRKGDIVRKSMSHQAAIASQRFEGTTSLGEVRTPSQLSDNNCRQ
UniProt Q53TQ3, whole entry: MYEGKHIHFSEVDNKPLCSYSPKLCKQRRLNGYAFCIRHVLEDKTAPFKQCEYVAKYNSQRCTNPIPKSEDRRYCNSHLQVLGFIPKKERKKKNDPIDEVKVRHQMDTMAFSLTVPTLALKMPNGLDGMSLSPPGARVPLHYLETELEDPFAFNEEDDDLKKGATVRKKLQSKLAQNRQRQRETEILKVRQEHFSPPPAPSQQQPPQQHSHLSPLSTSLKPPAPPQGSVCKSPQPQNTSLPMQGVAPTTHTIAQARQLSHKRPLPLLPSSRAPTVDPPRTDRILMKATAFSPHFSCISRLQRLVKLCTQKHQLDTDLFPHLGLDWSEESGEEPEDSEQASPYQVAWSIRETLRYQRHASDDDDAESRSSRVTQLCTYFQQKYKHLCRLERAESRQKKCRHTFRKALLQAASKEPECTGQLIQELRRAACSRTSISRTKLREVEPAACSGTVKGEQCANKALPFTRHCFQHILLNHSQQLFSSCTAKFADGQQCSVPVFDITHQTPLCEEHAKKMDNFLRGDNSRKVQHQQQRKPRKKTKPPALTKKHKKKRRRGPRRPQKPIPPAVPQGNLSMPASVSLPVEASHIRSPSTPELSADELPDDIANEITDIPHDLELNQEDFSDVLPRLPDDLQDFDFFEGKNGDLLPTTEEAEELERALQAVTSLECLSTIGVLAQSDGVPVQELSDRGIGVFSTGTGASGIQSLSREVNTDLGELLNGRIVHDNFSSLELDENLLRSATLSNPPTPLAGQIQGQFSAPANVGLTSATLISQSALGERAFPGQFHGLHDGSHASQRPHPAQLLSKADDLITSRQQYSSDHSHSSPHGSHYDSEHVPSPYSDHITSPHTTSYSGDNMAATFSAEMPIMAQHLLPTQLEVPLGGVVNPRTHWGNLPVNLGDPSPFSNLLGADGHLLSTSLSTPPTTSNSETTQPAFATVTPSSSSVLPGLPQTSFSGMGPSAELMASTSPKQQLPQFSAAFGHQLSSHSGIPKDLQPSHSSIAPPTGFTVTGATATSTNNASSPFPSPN
UniProt Q5T440: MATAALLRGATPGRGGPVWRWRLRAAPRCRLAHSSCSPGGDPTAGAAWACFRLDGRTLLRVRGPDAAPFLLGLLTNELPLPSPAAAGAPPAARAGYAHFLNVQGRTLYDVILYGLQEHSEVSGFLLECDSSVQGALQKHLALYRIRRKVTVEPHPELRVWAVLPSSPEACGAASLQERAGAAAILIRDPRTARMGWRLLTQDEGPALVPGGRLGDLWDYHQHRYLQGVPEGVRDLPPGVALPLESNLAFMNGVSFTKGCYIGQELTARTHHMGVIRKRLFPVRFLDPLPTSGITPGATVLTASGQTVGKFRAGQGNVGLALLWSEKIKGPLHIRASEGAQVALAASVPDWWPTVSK
UniProt Q5TA45, whole entry: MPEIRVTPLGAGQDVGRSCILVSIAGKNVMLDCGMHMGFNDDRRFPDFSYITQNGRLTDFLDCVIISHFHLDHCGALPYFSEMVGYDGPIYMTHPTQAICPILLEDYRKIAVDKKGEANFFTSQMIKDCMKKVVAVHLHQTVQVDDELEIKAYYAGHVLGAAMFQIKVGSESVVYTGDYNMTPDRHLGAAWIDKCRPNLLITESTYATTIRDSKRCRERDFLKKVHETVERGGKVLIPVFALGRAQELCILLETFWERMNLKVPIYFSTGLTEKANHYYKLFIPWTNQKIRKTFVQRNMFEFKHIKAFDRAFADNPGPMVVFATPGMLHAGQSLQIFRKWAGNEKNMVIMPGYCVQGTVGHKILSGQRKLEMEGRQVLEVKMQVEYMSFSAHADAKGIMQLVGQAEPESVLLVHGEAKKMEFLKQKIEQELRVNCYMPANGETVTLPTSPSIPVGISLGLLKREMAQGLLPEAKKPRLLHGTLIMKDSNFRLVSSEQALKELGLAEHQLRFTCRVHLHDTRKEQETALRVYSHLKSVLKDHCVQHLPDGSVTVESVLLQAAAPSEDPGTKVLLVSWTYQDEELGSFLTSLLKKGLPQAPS
UniProt Q4G0N4: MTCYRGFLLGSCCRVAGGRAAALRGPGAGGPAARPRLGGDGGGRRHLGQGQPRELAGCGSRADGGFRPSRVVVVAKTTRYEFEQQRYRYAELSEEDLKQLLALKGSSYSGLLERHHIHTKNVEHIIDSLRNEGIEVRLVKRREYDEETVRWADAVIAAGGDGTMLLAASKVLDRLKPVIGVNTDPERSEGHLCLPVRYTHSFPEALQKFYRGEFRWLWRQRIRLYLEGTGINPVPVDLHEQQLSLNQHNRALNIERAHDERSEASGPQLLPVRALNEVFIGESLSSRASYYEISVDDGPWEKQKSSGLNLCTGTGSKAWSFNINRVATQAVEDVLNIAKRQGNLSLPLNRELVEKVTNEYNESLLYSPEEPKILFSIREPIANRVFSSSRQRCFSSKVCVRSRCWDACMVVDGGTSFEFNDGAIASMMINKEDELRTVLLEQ
UniProt Q5T6J7: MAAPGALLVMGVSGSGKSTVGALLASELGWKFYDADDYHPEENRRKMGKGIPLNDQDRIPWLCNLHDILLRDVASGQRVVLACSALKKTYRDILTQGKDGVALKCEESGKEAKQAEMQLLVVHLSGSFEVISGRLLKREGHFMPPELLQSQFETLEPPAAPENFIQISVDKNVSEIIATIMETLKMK

Compound: CN[C@@H]1C[C@H]2O[C@@](C)([C@@H]1OC)n1c3ccccc3c3c4c(c5c6ccccc6n2c5c31)C(=O)NC4 [staurosporine]
Test: log2 fold change of tryptic peptide abundance, ligand vs vehicle (limited proteolysis) (log2 ratio); higher = more trypsin-susceptible (destabilized)
Conditions: ligand concentration: 20 uM; sample: K562 cleared lysate; digestion: 4 min, 22 C (HT-PELSA RT4min, Orbitrap Astral)

Target | log2 fold change
TBCEL (peptide sequence: SFMQVLCEK, peptide start residue: 8) (UniProt Q5QJ74) | 0.397
UniProt Q5T6F0 (peptide sequence: GWLNHDETWR, peptide start residue: 399) | 0.242
GPAT3 (peptide sequence: VKDIFKEEQQK, peptide start residue: 411) (UniProt Q53EU6) | -0.0182
TMEM41B (peptide sequence: SQLGAHHTTPVGDGAAGTR, peptide start residue: 10) (UniProt Q5BJD5) | 0.0607
PDSS1 (peptide sequence: FSLPGDVDR, peptide start residue: 354) (UniProt Q5T2R2) | -0.245
UniProt Q56UQ5 (peptide sequence: VKPFMTGAAEQIK, peptide start residue: 111) | 0.259
UniProt Q5T7B8 (peptide sequence: ASGPGEGLVR, peptide start residue: 687) | -0.2
CCDC92 (peptide sequence: ERPLVIPPIASDR, peptide start residue: 260) (UniProt Q53HC0) | -0.303
AHDC1 (peptide sequence: TEAACLSAPHLASPPATPK, peptide start residue: 1495) (UniProt Q5TGY3) | -0.536
DNAJC21 (peptide sequence: NFAWKEEYDTR, peptide start residue: 163) (UniProt Q5F1R6) | -0.169
HSP90AB2P (peptide sequence: LDSGKELK, peptide start residue: 65) (UniProt Q58FF8) | 0.514
UniProt Q5VWN6 (peptide sequence: ISEAPFLHPAPR, peptide start residue: 2023) | -0.62
TPRN (peptide sequence: ATFVSSVRPESSR, peptide start residue: 637) (UniProt Q4KMQ1) | 0.0246
RABL3 (peptide sequence: AVFYNSVNGIIFVHDLTNKK, peptide start residue: 82) (UniProt Q5HYI8) | -0.768
FNBP1L (peptide sequence: MKDVYEK, peptide start residue: 427) (UniProt Q5T0N5) | 0.291
THEM4 (peptide sequence: TPTEWIQDFK, peptide start residue: 82) (UniProt Q5T1C6) | -0.447
ZMYM1 (peptide sequence: TQENELK, peptide start residue: 42) (UniProt Q5SVZ6) | -0.245
SMUG1 (peptide sequence: ERLNELGLLPLLLK, peptide start residue: 257) (UniProt Q53HV7) | 0.348
MRPL51 (peptide sequence: AMFGVYDNIGILGNFEKHPK, peptide start residue: 52) (UniProt Q4U2R6) | -0.636

Pulled one by one from above:
Target | log2 fold change
UniProt Q5T6F0 (peptide sequence: GWLNHDETWR, peptide start residue: 399) | 0.242
CCDC92 (peptide sequence: ERPLVIPPIASDR, peptide start residue: 260) (UniProt Q53HC0) | -0.303

Next entries follow:

Target | log2 fold change
VPS26B (peptide sequence: IYFLLVR, peptide start residue: 193) (UniProt Q4G0F5) | -0.292
AASDH (peptide sequence: GLNSPVLIGK, peptide start residue: 721) (UniProt Q4L235) | -0.349
MRPL2 (peptide sequence: KIRPLPPMK, peptide start residue: 285) (UniProt Q5T653) | -0.577
IQSEC2 (peptide sequence: GFLSDTPVGVAHFILERK, peptide start residue: 779) (UniProt Q5JU85) | -0.744
UniProt Q53FT3 (peptide sequence: LAQNPLFWK, peptide start residue: 188) | -0.161
UBAP2 (peptide sequence: SQQTLDTPK, peptide start residue: 651) (UniProt Q5T6F2) | -0.183
UniProt Q53TQ3 (peptide sequence: ATAFSPHFSCISR, peptide start residue: 287) | -0.318
HP1BP3 (peptide sequence: TCSTTALK, peptide start residue: 358) (UniProt Q5SSJ5) | 0.29
UniProt Q5T440 (peptide sequence: GCYIGQELTAR, peptide start residue: 258) | 0.056
UniProt Q5T2W1 (peptide sequence: GLPGSFIKEVQK, peptide start residue: 280) | 0.0475
UniProt Q5MNZ6 (peptide sequence: QSSLASASFLPK, peptide start residue: 267) | -0.0672
PAN2 (peptide sequence: IQGETHDSIEDAR, peptide start residue: 1129) (UniProt Q504Q3) | -1.12
UniProt Q5TA45 (peptide sequence: LFIPWTNQK, peptide start residue: 281) | 0.114
UniProt Q4G0N4 (peptide sequence: SSGLNLCTGTGSK, peptide start residue: 305) | -0.219
AARS2 (peptide sequence: LVPSASVRPR, peptide start residue: 58) (UniProt Q5JTZ9) | 0.339
UniProt Q5T6J7 (peptide sequence: VVLACSALK, peptide start residue: 79) | -0.12
UniProt Q5JSJ4 (peptide sequence: ILASVGKKPPQEIGIK, peptide start residue: 437) | 0.619
EPC2 (peptide sequence: LQCFQPR, peptide start residue: 525) (UniProt Q52LR7) | 0.159
RRP12 (peptide sequence: LYSTIRPYLESK, peptide start residue: 772) (UniProt Q5JTH9) | 0.288
